Laboratory results published in US20190071514A1, “ANTI-CD39 ANTIBODIES” (INNATE PHARMA, priority 2016, published 2019).
Substitutions are numbered along the chain they refer to. In names and notes the source's numbering stands. No constants are given. Whether binding was seen depends on the method and setting. A result given as binding can be weak or reduced; the word gives no strength.

B1: mAb3 (antibody, human IgG1, V domains shown)
VH: QVQLVQSGSELKKPGASVKVSCKASGYTFTHYGMNWVRQAPGKGLKWMGWINTYTGEPTYADDFKGRFVFSLDTSVSTAYLQISSLKAEDTAVYYCARRRYEGNYVFYYFDYWGQGTTVTVSS
VL: DIQMTQSPSSLSASVGDRVTITCRASENIYSYFSWYQQKPGKAPKLLIYTAKTLAEGVPSRFSGSGSGTDFTLTISSLQPEDFATYYCQHHYVTPYTFGGGTKVEIK
notes: Produced as Fc silent recombinant human IgG1 with heavy chain N297Q (Kabat EU numbering) and huCk constant domain; also called anti-CD39 antibody mAb3
B2: mAb1 (antibody, human IgG1, V domains shown)
VH: B1 VH with K43Q, K46E
VL: B1 VL
notes: Produced as Fc silent recombinant human IgG1 with heavy chain N297Q (Kabat EU numbering) and huCk constant domain; also called anti-CD39 antibody mAb1
B3: mAb2 (antibody, human IgG1, V domains shown)
VH: B1 VH with K43Q
VL: B1 VL
notes: Produced as Fc silent recombinant human IgG1 with heavy chain N297Q (Kabat EU numbering) and huCk constant domain; also called anti-CD39 antibody mAb2
B4: mAb4 (antibody, human IgG1, V domains shown)
VH: B1 VH with V2I, T74A
VL: B1 VL
notes: Produced as Fc silent recombinant human IgG1 with heavy chain N297Q (Kabat EU numbering) and huCk constant domain; also called anti-CD39 antibody mAb4
B5: mAb5 (antibody, human IgG1, V domains shown)
VH: B1 VH with K43Q
VL: B1 VL with I48V
notes: Produced as Fc silent recombinant human IgG1 with heavy chain N297Q (Kabat EU numbering) and huCk constant domain; also called anti-CD39 antibody mAb5
B6: mAb6 (antibody, human IgG1, V domains shown)
VH: B1 VH
VL: B1 VL with I48V
notes: Produced as Fc silent recombinant human IgG1 with heavy chain N297Q (Kabat EU numbering) and huCk constant domain; also called anti-CD39 antibody mAb6
B7: mAb7 (antibody, human IgG1, V domains shown)
VH: B1 VH with V2I, T74A
VL: B1 VL with I48V
notes: Produced as Fc silent recombinant human IgG1 with heavy chain N297Q (Kabat EU numbering) and huCk constant domain; also called anti-CD39 antibody mAb7

The binders below were run against recombinant human CD39 (vascular isoform) (human) (assay: ELISA, recombinant human CD39 coated).

binding, binds:
B1
B2
B3
B4
B5
B6
B7
